# These are yes or no findings as the source states them, for the method shown. Some binding calls cover weakened binding; strength is not graded here.
# T1: Human SP9155 receptor (human, UniProt Q96P65 1-431)
# T1 sequence: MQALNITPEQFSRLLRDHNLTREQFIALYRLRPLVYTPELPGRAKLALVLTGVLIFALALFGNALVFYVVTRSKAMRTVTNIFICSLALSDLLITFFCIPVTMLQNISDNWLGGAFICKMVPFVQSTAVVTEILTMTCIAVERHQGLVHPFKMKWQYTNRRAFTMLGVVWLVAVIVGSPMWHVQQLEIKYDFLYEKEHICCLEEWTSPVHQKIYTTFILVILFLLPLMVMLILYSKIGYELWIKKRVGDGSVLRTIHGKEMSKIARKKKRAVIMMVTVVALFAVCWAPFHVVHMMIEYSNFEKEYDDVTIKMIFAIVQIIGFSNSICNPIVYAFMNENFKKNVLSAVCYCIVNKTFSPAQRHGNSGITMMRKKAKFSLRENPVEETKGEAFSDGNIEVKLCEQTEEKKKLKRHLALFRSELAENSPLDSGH
# Biological target: T1, Human SP9155 receptor
# Test: FLIPR Ca2+ flux on HEK293 cells transfected with SP9155 receptor (ligand status inferred from a functional assay)
row,Binder,binding
1,GGFSFRF (C-terminal amide) [Human P52],binds
2,KGGFSFRF (C-terminal amide) [Human P513],binds
3,EHAGCRFRF (C-terminal amide) [Human P51],binds

# Continued, values first:
row,binding,Binder
1,binds,KKGGFSFRF (C-terminal amide) [Human P517]
2,binds,TSGPLGNLAEELNGYSRKKGGFSFRF (C-terminal amide) [Human P518]
